According to patent US5945326:
The exact form of at least one protein or probe is not confirmed.

What was measured:
[1] = tested on: SpeI modification methylase (Sphaerotilus species ATCC 13923); experiment: activity in cells; settings: methylase selection; pSpeIM1 clone in pSspIHincII/SpeI vector fully protected from SpeI digestion; protein in cells; protein details: expressed from pSYX20SpeIM9 in E. coli ER2427; only the site is given
[2] = tested on: SpeI restriction endonuclease (native, ~20 kDa) (Sphaerotilus species ATCC 13923); experiment: enzyme reaction in vitro; settings: plasmids with inserted linker identified by SpeI digestion; SpeI preparation source not stated; purified native protein

CCAACTAGTTGG (double strand) [SpeI linker (inserted in pUC19, pSspIHincII/SpeI)]
activity on this sequence [1]: active
activity on this sequence [2]: active
